Some entries share one result that the patent states for a list of compounds.
Test system: L-1 stage larvae of canine filariae (Dirofilaria immitis)
Assay: Impact evaluation test on larvae motility of canine filariae
Assay type: cell-based
Details: final concentration 50 ppm, 3 days, corrected for DMSO solution alone

For `FC(F)(F)C(F)(F)COc1ccc(-c2nc3cc(Br)c(Br)cc3[nH]2)cn1` [Compound 1-5, 5,6-dibromo-2-(6-(2,2,3,3,3-pentafluoropropyloxy)pyridin-3-yl)benzimidazole], the “activity level (corrected motility impediment rate)” value was “A (the corrected motility impediment rate is 100%)”.
For `Cn1c(-c2ccc(OCC(F)(F)C(F)(F)F)nc2)nc2cc(Br)c(Br)cc21` [Compound 2-58, 5,6-dibromo-2-(6-(2,2,3,3,3-pentafluoropropyloxy)pyridin-3-yl)-1-methylbenzimidazole], the “activity level (corrected motility impediment rate)” value was “A (the corrected motility impediment rate is 100%)”.
